The source of these data is publication doi:10.1101/2022.03.21.484600.

In test [1] the target is Cdc19 amyloid core peptide, wild type (amino acids 376-392) (S. cerevisiae). The experiment in a line: fibril formation seen by negative staining TEM.
For test [2], the target named is GFP-tagged wild-type Cdc19 expressed in yeast (S. cerevisiae) (UniProt P00549). The experiment in a line: semi-denaturing detergent agarose gel electrophoresis.

No constants are given. Whether binding was seen depends on the method and setting. Some binding calls cover weakened binding; strength is not graded here. For some assays here: Sequences can lack the tags named with a protein.

B1: Cdc19 amyloid core peptide, wild type (amino acids 376-392) (peptide)
peptide: TSTTETVAASAVAAVFE
In the case of B1, in test [1], the binding result is “no binding (condition: at pH 7.4)”.

B2: GFP-tagged wild-type Cdc19 expressed in yeast (enzyme, UniProt P00549 1-500)
chain: MSRLERLTSLNVVAGSDLRRTSIIGTIGPKTNNPETLVALRKAGLNIVRMNFSHGSYEYHKSVIDNARKSEELYPGRPLAIALDTKGPEIRTGTTTNDVDYPIPPNHEMIFTTDDKYAKACDDKIMYVDYKNITKVISAGRIIYVDDGVLSFQVLEVVDDKTLKVKALNAGKICSHKGVNLPGTDVDLPALSEKDKEDLRFGVKNGVHMVFASFIRTANDVLTIREVLGEQGKDVKIIVKIENQQGVNNFDEILKVTDGVMVARGDLGIEIPAPEVLAVQKKLIAKSNLAGKPVICATQMLESMTYNPRPTRAEVSDVGNAILDGADCVMLSGETAKGNYPINAVTTMAETAVIAEQAIAYLPNYDDMRNCTPKPTSTTETVAASAVAAVFEQKAKAIIVLSTSGTTPRLVSKYRPNCPIILVTRCPRAARFSHLYRGVFPFVFEKEPVSDWTDDVEARINFGIEKAKEFGILKKGDTYVSIQGFKAGAGHSNTLQVSTV
On to B2, for which the binding result in test [2] is on record as “binds”.
